Experimental data published in PubChem BioAssay AID330 (DTP/NCI, 2004).
The list does not hold the whole screen: its compounds were picked by chemical class. Other doses and runs of a compound may be missing. T/C is the treated group as % of the vehicle group. Some entries give survivors of the animals treated and no T/C: the source holds a T/C of zero for them, seemingly a mark for toxic or unscored doses. Survivors were counted at the toxicity check, usually on the fifth day, unless a day is given; later deaths do not show. Schedule codes are those of the source, taken here to give the interval after Q, in days (D) or hours (H), and the number of doses after X. For survival time, this PubChem deposit counts one and a half times the control or more as active, and values a quarter to a half above the control carry no call in these data; other NCI protocols may use other cut-offs. Some T/C values are marked as having no survivor count here; that says nothing about deaths at the dose. Brackets with × give the number of equal values in this list. Some entries were tested several times; their values stand side by side, smallest first.

System: P388 leukemia ip, CD2F1 mice, survival T/C
Test: NCI In Vivo Anticancer Drug Screen. Data for tumor model P388 Leukemia (intraperitoneal) in CD2F1 (CDF1) mice
Conditions: T/C endpoint: median survival time, higher T/C = longer survival
[1] = dose: 6.25 mg/kg/injection, schedule: Q01DX009 (ip), vehicle: Klucel (hydroxypropylcellulose) (HPC)
[2] = dose: 25.0 mg/kg/injection, schedule: Q01DX009 (ip), vehicle: saline with Tween-80
[3] = dose: 50.0 mg/kg/injection, schedule: Q01DX009 (ip), vehicle: saline with Tween-80
[4] = dose: 12.5 mg/kg/injection, schedule: Q01DX009 (ip), vehicle: Klucel (hydroxypropylcellulose) (HPC)
[5] = dose: 25.0 mg/kg/injection, schedule: Q01DX009 (ip), vehicle: Klucel (hydroxypropylcellulose) (HPC)
[6] = dose: 50.0 mg/kg/injection, schedule: Q01DX009 (ip), vehicle: Klucel (hydroxypropylcellulose) (HPC)

## CC1=CC(=O)C(N(CCCl)CCCl)=CC1=O
dose: 1.56 mg/kg/injection, schedule: Q01DX009 (ip), vehicle: Klucel (hydroxypropylcellulose) (HPC)
  T/C: 148 % of control [survivor count not shown]
dose: 3.13 mg/kg/injection, schedule: Q01DX009 (ip), vehicle: Klucel (hydroxypropylcellulose) (HPC)
  T/C: 157 % of control [survivor count not shown]
[1]
  T/C: 134 % of control [survivor count not shown]

## O=C(Cl)c1cccc(N(CCCl)CCCl)c1
[2]
  T/C: 162 % of control [survivor count not shown]
[3]
  T/C: 180 % of control [survivor count not shown] (2×)
dose: 100.0 mg/kg/injection, schedule: Q01DX009 (ip), vehicle: saline with Tween-80
  T/C: 199 [survivor count not shown] and 207 % of control [survivor count not shown]

## ClCCN(CCCl)c1ccccc1
dose: 3.12 mg/kg/injection, schedule: Q01DX009 (ip), vehicle: Klucel (hydroxypropylcellulose) (HPC)
  T/C: 121 % of control [survivor count not shown]
dose: 3.13 mg/kg/injection, schedule: Q01DX009 (ip), vehicle: saline with Tween-80
  T/C: 110 % of control [survivor count not shown]
dose: 6.0 mg/kg/injection, schedule: Q01DX009 (ip), vehicle: saline with Tween-80
  T/C: 146 % of control [survivor count not shown]
[1]
  T/C: 121 [survivor count not shown] and 134 % of control [survivor count not shown]
dose: 6.25 mg/kg/injection, schedule: Q01DX009 (ip), vehicle: saline with Tween-80
  T/C: 119 % of control [survivor count not shown]
dose: 8.0 mg/kg/injection, schedule: Q04DX003 (ip), vehicle: Klucel (hydroxypropylcellulose) (HPC)
  T/C: 118 % of control
dose: 12.0 mg/kg/injection, schedule: Q01DX009 (ip), vehicle: saline with Tween-80
  T/C: 146 % of control [survivor count not shown]
[4]
  T/C: 131 [survivor count not shown] and 141 % of control [survivor count not shown]
dose: 12.5 mg/kg/injection, schedule: Q01DX009 (ip), vehicle: saline with Tween-80
  T/C: 146 % of control [survivor count not shown]
dose: 16.0 mg/kg/injection, schedule: Q04DX003 (ip), vehicle: Klucel (hydroxypropylcellulose) (HPC)
  T/C: 141 % of control
dose: 24.0 mg/kg/injection, schedule: Q01DX009 (ip), vehicle: saline with Tween-80
  T/C: 171 % of control [survivor count not shown]
[5]
  T/C: 144 [survivor count not shown] and 164 % of control [survivor count not shown]
[2]
  T/C: 144 % of control [survivor count not shown]
dose: 25.0 mg/kg/injection, schedule: Q04DX003 (ip), vehicle: saline with Tween-80
  T/C: 119 % of control [survivor count not shown]
dose: 25.0 mg/kg/injection, schedule: Q04DX003 (iv), vehicle: saline with Tween-80
  T/C: 110 % of control [survivor count not shown]
dose: 32.0 mg/kg/injection, schedule: Q04DX003 (ip), vehicle: Klucel (hydroxypropylcellulose) (HPC)
  T/C: 181 % of control
dose: 48.0 mg/kg/injection, schedule: Q01DX009 (ip), vehicle: saline with Tween-80
  T/C: 101 % of control [survivor count not shown]
[6]
  T/C: 98 [survivor count not shown] and 114 % of control [survivor count not shown]
[3]
  T/C: 117 % of control [survivor count not shown]
dose: 50.0 mg/kg/injection, schedule: Q04DX003 (ip), vehicle: saline with Tween-80
  T/C: 153 % of control [survivor count not shown]
dose: 50.0 mg/kg/injection, schedule: Q04DX003 (iv), vehicle: saline with Tween-80
  T/C: 111 % of control [survivor count not shown]
dose: 64.0 mg/kg/injection, schedule: Q04DX003 (ip), vehicle: Klucel (hydroxypropylcellulose) (HPC)
  T/C: 108 % of control
dose: 100.0 mg/kg/injection, schedule: Q04DX003 (ip), vehicle: saline with Tween-80
  T/C: 146 % of control [survivor count not shown]
dose: 100.0 mg/kg/injection, schedule: Q04DX003 (iv), vehicle: saline with Tween-80
  T/C: 117 % of control [survivor count not shown]
dose: 128.0 mg/kg/injection, schedule: Q04DX003 (ip), vehicle: Klucel (hydroxypropylcellulose) (HPC)
  survivor count: 4 of 8
dose: 200.0 mg/kg/injection, schedule: Q04DX003 (ip), vehicle: saline with Tween-80
  T/C: 133 % of control [survivor count not shown]
dose: 200.0 mg/kg/injection, schedule: Q04DX003 (iv), vehicle: saline with Tween-80
  T/C: 128 % of control [survivor count not shown]

## O=P1(N(CCCl)CCCl)NCC2OCCCC2O1 (stereo not drawn)
dose: 25.0 mg/kg/injection, schedule: Q01DX005 (ip), vehicle: Klucel (hydroxypropylcellulose) (HPC)
  T/C: 104 % of control
dose: 50.0 mg/kg/injection, schedule: Q01DX005 (ip), vehicle: Klucel (hydroxypropylcellulose) (HPC)
  T/C: 100 % of control
dose: 100.0 mg/kg/injection, schedule: Q01DX005 (ip), vehicle: Klucel (hydroxypropylcellulose) (HPC)
  T/C: 111 % of control

## Cc1cc(N(CCCl)CCCl)ccc1N=O
dose: 100.0 mg/kg/injection, schedule: Q01DX001 (ip), vehicle: Klucel (hydroxypropylcellulose) (HPC)
  T/C: 157 % of control [survivor count not shown]
dose: 200.0 mg/kg/injection, schedule: Q01DX001 (ip), vehicle: Klucel (hydroxypropylcellulose) (HPC)
  T/C: 151 % of control [survivor count not shown]

## Cc1oc2ccccc2c(=O)c1CN(CCCl)CCCl
dose: 30.0 mg/kg/injection, schedule: Q01DX005 (ip), vehicle: saline with Tween-80
  T/C: 158 % of control
dose: 60.0 mg/kg/injection, schedule: Q01DX005 (ip), vehicle: saline with Tween-80
  T/C: 137 % of control
dose: 120.0 mg/kg/injection, schedule: Q01DX005 (ip), vehicle: saline with Tween-80
  T/C: 161 % of control

## O=C(O)c1ccc(CN(CCCl)CCCl)cc1
dose: 0.75 mg/kg/injection, schedule: Q01DX009 (ip), vehicle: saline
  T/C: 157 [survivor count not shown] and 163 % of control [survivor count not shown]
dose: 0.75 mg/kg/injection, schedule: Q04DX003 (ip), vehicle: saline
  T/C: 136 % of control [survivor count not shown] (2×)
dose: 1.5 mg/kg/injection, schedule: Q01DX009 (ip), vehicle: saline
  T/C: 189 % of control [survivor count not shown] (2×)
dose: 1.5 mg/kg/injection, schedule: Q04DX003 (ip), vehicle: saline
  T/C: 146 [survivor count not shown] and 159 % of control [survivor count not shown]
dose: 3.0 mg/kg/injection, schedule: Q01DX009 (ip), vehicle: saline
  T/C: 218 % of control [survivor count not shown]
dose: 3.0 mg/kg/injection, schedule: Q04DX003 (ip), vehicle: saline
  T/C: 169 [survivor count not shown] and 180 % of control [survivor count not shown]
dose: 6.0 mg/kg/injection, schedule: Q04DX003 (ip), vehicle: saline
  T/C: 190 % of control [survivor count not shown] (2×)

## CCC(C)(O)C#CCN(CCCl)CCCl (stereo not drawn)
dose: 12.5 mg/kg/injection, schedule: Q04DX003 (ip), vehicle: saline
  T/C: 95 % of control [survivor count not shown]

## COc1ccc(N(CCCl)CCCl)cc1
[1]
  T/C: 150 % of control [survivor count not shown]
[4]
  T/C: 163 % of control [survivor count not shown]
[5]
  T/C: 151 [survivor count not shown] and 204 % of control [survivor count not shown]
[6]
  T/C: 94 [survivor count not shown] and 119 % of control [survivor count not shown]
